In PMC9585911:
These are yes or no findings as the source states them, for the method shown. Binding seen in cells or lysates may run through a third protein. These calls come from enrichment with a bait or labelling near it, and not all partners need be listed.

Molecular target: Strep-tagged Nsp8 of SARS-CoV-2 (SARS-CoV-2) (UniProt P0DTD1)
Test: affinity purification with mass spectrometry

B1: EXOSC10 (protein, UniProt Q01780 1-885)
chain: MAPPSTREPRVLSATSATKSDGEMVLPGFPDADSFVKFALGSVVAVTKASGGLPQFGDEYDFYRSFPGFQAFCETQGDRLLQCMSRVMQYHGCRSNIKDRSKVTELEDKFDLLVDANDVILERVGILLDEASGVNKNQQPVLPAGLQVPKTVVSSWNRKAAEYGKKAKSETFRLLHAKNIIRPQLKFREKIDNSNTPFLPKIFIKPNAQKPLPQALSKERRERPQDRPEDLDVPPALADFIHQQRTQQVEQDMFAHPYQYELNHFTPADAVLQKPQPQLYRPIEETPCHFISSLDELVELNEKLLNCQEFAVDLEHHSYRSFLGLTCLMQISTRTEDFIIDTLELRSDMYILNESLTDPAIVKVFHGADSDIEWLQKDFGLYVVNMFDTHQAARLLNLGRHSLDHLLKLYCNVDSNKQYQLADWRIRPLPEEMLSYARDDTHYLLYIYDKMRLEMWERGNGQPVQLQVVWQRSRDICLKKFIKPIFTDESYLELYRKQKKHLNTQQLTAFQLLFAWRDKTARREDESYGYVLPNHMMLKIAEELPKEPQGIIACCNPVPPLVRQQINEMHLLIQQAREMPLLKSEVAAGVKKSGPLPSAERLENVLFGPHDCSHAPPDGYPIIPTSGSVPVQKQASLFPDEKEDNLLGTTCLIATAVITLFNEPSAEDSKKGPLTVAQKKAQNIMESFENPFRMFLPSLGHRAPVSQAAKFDPSTKIYEISNRWKLAQVQVQKDSKEAVKKKAAEQTAAREQAKEACKAAAEQAISVRQQVVLENAAKKRERATSDPRTTEQKQEKKRLKISKKPKDPEPPEKEFTPYDYSQSDFKAFAGNSKSKVSSQFDPNKQTPSGKKCIAAKKIKQSVGNKSMSFPTGKSDRGFRYNWPQR
binding: binds
